Structures can show the parent of a compound that is named as a salt. The list shows a part of the results. Single values are uncertain, as repeats are few or missing.
What was measured:
Test in all cases: reduction in cell viability relative to untreated/vehicle; higher = more growth inhibition
Conditions in all cases: 200 nM; 72 h
M229P = test system: M229P (parental melanoma line)
M229R = test system: M229R (matched melanoma line resistant to BRAF inhibitors)
M238P = test system: M238P (parental melanoma line)
M238R = test system: M238R (matched melanoma line resistant to BRAF inhibitors)
M249P = test system: M249P (parental melanoma line)
M249R = test system: M249R (matched melanoma line resistant to BRAF inhibitors)
UACC62P = test system: UACC62P (parental melanoma line)
UACC62R = test system: UACC62R (matched melanoma line resistant to BRAF inhibitors)

Row | SMILES | reduction in cell viability (M229P) | reduction in cell viability (M229R) | reduction in cell viability (M238P) | reduction in cell viability (M238R) | reduction in cell viability (M249P) | reduction in cell viability (M249R) | reduction in cell viability (UACC62P) | reduction in cell viability (UACC62R)
1 | O=C(Nc1ccc(F)c(C(F)(F)F)c1)Nc1nnc(-c2ccncc2)s1 | < 0% | < 0% | < 0% | < 0% | < 0% | < 0% | < 0% | < 0%
2 | COc1ccc2[nH]c([S@@+]([O-])Cc3ncc(C)c(OC)c3C)nc2c1 [Esomeprazole magnesium] | < 0% | < 0% | < 0% | < 0% | < 0% | < 0% | < 0% | 3.04%
3 | CO[C@H]1C[C@@H]2CC[C@@H](C)[C@@](O)(O2)C(=O)C(=O)N2CCCC[C@H]2C(=O)O[C@H]([C@H](C)C[C@@H]2CC[C@@H](O)[C@H](OC)C2)CC(=O)[C@H](C)/C=C(\C)[C@@H](O)[C@@H](OC)C(=O)[C@H](C)C[C@H](C)/C=C/C=C/C=C/1C [Rapamycin] | < 0% | 12.1% | 11.1% | < 0% | 7.22% | 7.49% | 18.3% | < 0%
4 | CCN1CCN(C(=O)N[C@@H](C(=O)N[C@@H]2C(=O)N3C(C(=O)O)=C(CSc4nnnn4C)CS[C@H]23)c2ccc(O)cc2)C(=O)C1=O [Cefoperazone sodium] | < 0% | < 0% | < 0% | < 0% | < 0% | < 0% | < 0% | < 0%
5 | COC(=O)C1=CO[C@@H](O)[C@@H]2C(CO)=CC[C@H]12 [Genipin] | < 0% | < 0% | < 0% | < 0% | < 0% | < 0% | < 0% | < 0%
6 | Nc1nc(N)c2nc(CNc3ccc(C(=O)N[C@@H](CCC(=O)O)C(=O)O)cc3)cnc2n1 [Aminopterin] | < 0% | < 0% | < 0% | < 0% | < 0% | < 0% | < 0% | < 0%
7 | COc1nc(N)nc2c1ncn2[C@@H]1O[C@H](CO)[C@@H](O)[C@@H]1O [Nelarabine] | < 0% | < 0% | < 0% | < 0% | < 0% | < 0% | < 0% | < 0%
8 | O=C(/C=C/C=C/c1ccc2c(c1)OCO2)N1CCCCC1 [Piperine] | < 0% | < 0% | < 0% | < 0% | < 0% | < 0% | < 0% | < 0%
9 | CC1C(=O)OC2C(O)C34C5CC(C(C)(C)C)C36C(OC(=O)C6O)OC4(C(=O)O5)C12O (configuration not stated) [Ginkgolide B] | < 0% | < 0% | < 0% | < 0% | < 0% | < 0% | < 0% | < 0%
10 | CCOC(=O)[C@H](CCc1ccccc1)N[C@@H](C)C(=O)N1[C@H](C(=O)O)C[C@@H]2CCC[C@@H]21 [Ramipril] | < 0% | < 0% | < 0% | < 0% | < 0% | 0.64% | 2.29% | < 0%
11 | C=C1/C(=C\C=C2/CCC[C@]3(C)[C@@H]([C@H](C)/C=C/C=C/C(O)(CC)CC)CC[C@@H]23)C[C@@H](O)C[C@@H]1O [Seocalcitol] | < 0% | < 0% | < 0% | < 0% | < 0% | < 0% | 2.94% | < 0%
12 | C[C@@H](Oc1ccc2[nH]nc(/C=C/c3cnn(CCO)c3)c2c1)c1c(Cl)cncc1Cl | < 0% | 27.7% | 22.5% | 23.7% | < 0% | < 0% | < 0% | 46.3%
13 | Cc1cc(C(=O)N2CCN(c3cccc(Cl)c3)CC2)n(-c2ccccc2)n1 | < 0% | 6.19% | 1.88% | < 0% | < 0% | 3.51% | 27.1% | 40.4%
14 | CCOc1cc2ncc(C#N)c(Nc3ccc(F)c(Cl)c3)c2cc1NC(=O)/C=C/CN(C)C [Pelitinib] | 20.8% | < 0% | 31.6% | 5.04% | 25.6% | 26.9% | 32.4% | 29.3%
15 | Cc1nc(NC(=O)N2CCC[C@H]2C(N)=O)sc1-c1ccnc(C(C)(C)C(F)(F)F)c1 | < 0% | 8.84% | 17.3% | 9.44% | < 0% | < 0% | 9.43% | < 0%
16 | Cc1cc(C2CCCCC2)n(O)c(=O)c1 [Ciclopirox] | 6.2% | 15.8% | 30.4% | 5.7% | 21.5% | 38.8% | 16.1% | 41.3%
17 | CNC(=O)c1ccc(C)c(-n2c(C)cc(OCc3ccc(F)cc3F)c(Br)c2=O)c1 | < 0% | < 0% | < 0% | < 0% | < 0% | < 0% | 4.65% | < 0%
18 | COc1ccc([C@@H]2CC(=O)c3c(O)cc(O)cc3O2)cc1O [Hesperetin] | < 0% | < 0% | < 0% | < 0% | < 0% | < 0% | 6.47% | < 0%
19 | Cc1cc(N2CCOCC2)cc2[nH]c(-c3c(NC[C@@H](O)c4cccc(Cl)c4)cc[nH]c3=O)nc12 | < 0% | 2.75% | 7.08% | 0.55% | < 0% | < 0% | 9.87% | < 0%
20 | O=C1NC(=O)[C@@H](c2cn3c4c(cccc24)CCC3)[C@@H]1c1c[nH]c2ccccc12 [Tivantinib] | 14.4% | 41.6% | 30.5% | < 0% | < 0% | 20% | < 0% | 64.6%

Row | SMILES | reduction in cell viability (M229P) | reduction in cell viability (M229R) | reduction in cell viability (M238P) | reduction in cell viability (M238R) | reduction in cell viability (M249P) | reduction in cell viability (M249R) | reduction in cell viability (UACC62P) | reduction in cell viability (UACC62R)
21 | CC1(C)CCC(C)(C)c2cc(NC(=O)c3ccc(C(=O)O)cc3)ccc21 [Tamibarotene] | < 0% | < 0% | < 0% | < 0% | < 0% | < 0% | < 0% | < 0%
22 | CC(C)[C@@H](C)/C=C/[C@@H](C)[C@H]1CC[C@H]2C3=CC=C4C[C@@H](O)CC[C@]4(C)[C@H]3CC[C@]12C [Ergosterol] | < 0% | < 0% | < 0% | < 0% | < 0% | < 0% | < 0% | < 0%
23 | CN1CCN2c3ccccc3Cc3ccccc3C2C1 (configuration not stated) [Mianserin] | < 0% | < 0% | < 0% | < 0% | < 0% | < 0% | < 0% | < 0%
24 | Cc1ccc(NC(=O)c2ccc(CN3CCN(C)CC3)cc2)cc1Nc1nc(-c2cccnc2)cs1 [Masitinib] | < 0% | < 0% | < 0% | < 0% | < 0% | < 0% | < 0% | < 0%
25 | COc1ccc(F)c(F)c1C(=O)c1cnc(NC2CCN(S(C)(=O)=O)CC2)nc1N | < 0% | < 0% | 5.79% | < 0% | < 0% | 4.18% | < 0% | 25.8%
26 | CCn1cc(C(=O)O)c(=O)c2cc(F)c(N3CCNCC3)nc21 [Enoxacin] | < 0% | < 0% | < 0% | < 0% | < 0% | < 0% | < 0% | < 0%
27 | CC(C)(Oc1ccc(C2CC2(Cl)Cl)cc1)C(=O)O (configuration not stated) [Ciprofibrate] | < 0% | < 0% | < 0% | < 0% | 5.29% | < 0% | < 0% | < 0%
28 | CCN(CC)CCOc1ccc(C(=C(Cl)c2ccccc2)c2ccccc2)cc1 [Clomifene citrate] | < 0% | < 0% | < 0% | < 0% | < 0% | < 0% | < 0% | < 0%
29 | CC(C)(C)c1nc2c3cc[nH]c(=O)c3c3cc(F)ccc3c2[nH]1 [Merck 5] | < 0% | < 0% | < 0% | < 0% | 2.9% | < 0% | 12.8% | < 0%
30 | CC(C)C[C@H](NC(=O)[C@H](Cc1ccccc1)NC(=O)c1cnccn1)B(O)O [Bortezomib] | 88.2% | 85.8% | 86.2% | 92% | 89.8% | 85.9% | 92.5% | 86.3%
31 | Fc1ccc([C@@H]2CCNC[C@H]2COc2ccc3c(c2)OCO3)cc1 [Paroxetine] | < 0% | < 0% | < 0% | < 0% | < 0% | < 0% | < 0% | < 0%
32 | O=C(O)C1CCCN(CCC=C(c2ccccc2)c2ccccc2)C1 (configuration not stated) | < 0% | < 0% | < 0% | < 0% | < 0% | < 0% | < 0% | < 0%
33 | N#CC[C@H](C1CCCC1)n1cc(-c2ncnc3[nH]ccc23)cn1 | < 0% | 3.22% | 10.6% | < 0% | < 0% | < 0% | < 0% | < 0%
34 | C[C@@H](c1ncncc1F)[C@](O)(Cn1cncn1)c1ccc(F)cc1F [Voriconazole] | < 0% | < 0% | < 0% | < 0% | < 0% | < 0% | < 0% | < 0%
35 | COc1ccc(CC2SC(=O)NC2=O)cc1C(=O)NCc1ccc(C(F)(F)F)cc1 (configuration not stated) | < 0% | < 0% | 24.8% | < 0% | < 0% | < 0% | < 0% | < 0%
36 | Clc1ccc2nsnc2c1NC1=NCCN1 [Tizanidine hydrochloride] | < 0% | < 0% | < 0% | < 0% | < 0% | < 0% | 12.1% | < 0%
37 | C[C@@H](CN1CC(=O)NC(=O)C1)N1CC(=O)NC(=O)C1 [Dexrazoxane hydrochloride] | < 0% | < 0% | < 0% | < 0% | < 0% | < 0% | < 0% | < 0%
38 | CCn1cc(C(=O)O)c(=O)c2cc(F)c(N3CCNC(C)C3)c(F)c21 (configuration not stated) [Lomefloxacin hydrochloride] | < 0% | < 0% | < 0% | < 0% | < 0% | < 0% | < 0% | < 0%
39 | COc1ccc2cc([C@H](C)C(=O)O)ccc2c1 [Naproxen sodium] | < 0% | < 0% | < 0% | < 0% | < 0% | < 0% | < 0% | < 0%

Source: the supplement of paper PMC9015667
